Paper PMC7493027, “Mps1 dimerization and multisite interactions with Ndc80 complex enable responsive spindle assembly checkpoint signaling” (Journal of Molecular Cell Biology, 2020)
These are yes or no findings as the source states them, for the method shown. Binding can be weak; no strength is given. Where a sequence is shown, tags or fusion partners need not be part of it.

B1: MBP-tagged Mps1^TPR–CTE (domain or fragment, UniProt P33981 62-300)
chain: PEDWLSLLLKLEKNSVPLSDALLNKLIGRYSQAIEALPPDKYGQNESFARIQVRFAELKAIQEPDDARDYFQMARANCKKFAFVHISFAQFELSQGNVKKSKQLLQKAVERGAVPLEMLEIALRNLNLQKKQLLSEEEKKNLSASTVLTAQESFSGSLGHLQNRNNSCDSRGQTTKARFLYGENMPPQDAEIGYRNSLRQTNKTKQSCPFGRVPVNLLNSPDCDVKTDDSVVPCFMKRQ
B2: MBP-tagged Mps1 N-terminal fragment (amino acids 1–300), Mps1^N300 (domain or fragment, UniProt P33981 1-300)
chain: MESEDLSGRELTIDSIMNKVRDIKNKFKNEDLTDELSLNKISADTTDNSGTVNQIMMMANNPEDWLSLLLKLEKNSVPLSDALLNKLIGRYSQAIEALPPDKYGQNESFARIQVRFAELKAIQEPDDARDYFQMARANCKKFAFVHISFAQFELSQGNVKKSKQLLQKAVERGAVPLEMLEIALRNLNLQKKQLLSEEEKKNLSASTVLTAQESFSGSLGHLQNRNNSCDSRGQTTKARFLYGENMPPQDAEIGYRNSLRQTNKTKQSCPFGRVPVNLLNSPDCDVKTDDSVVPCFMKRQ
B3: MBP-tagged Mps1^NTE–TPR (domain or fragment, UniProt P33981 1-192)
chain: MESEDLSGRELTIDSIMNKVRDIKNKFKNEDLTDELSLNKISADTTDNSGTVNQIMMMANNPEDWLSLLLKLEKNSVPLSDALLNKLIGRYSQAIEALPPDKYGQNESFARIQVRFAELKAIQEPDDARDYFQMARANCKKFAFVHISFAQFELSQGNVKKSKQLLQKAVERGAVPLEMLEIALRNLNLQKK
B4: MBP-tagged Mps1 tetratricopeptide repeat domain (TPR, amino acids 62–192) (domain or fragment, human, UniProt P33981 62-192, looked up)
chain: PEDWLSLLLKLEKNSVPLSDALLNKLIGRYSQAIEALPPDKYGQNESFARIQVRFAELKAIQEPDDARDYFQMARANCKKFAFVHISFAQFELSQGNVKKSKQLLQKAVERGAVPLEMLEIALRNLNLQKK
notes: Mps1, human, tetratricopeptide repeat domain, amino acids 62-192; also called Mps1^TPR; source: Escherichia coli, purified

What follows are binders tested against GST-tagged Ndc80C^Bonsai (assay: pull-down; GST-tagged Ndc80C^Bonsai as affinity matrix; MBP-tagged Mps1 truncations pulled down (Supplementary Figure S2F); both purified).

binding	Binder
binds	B1
binds	B2
binds	B3
binds	B4
